These results are taken from patent US20230035403A1, “Method For Determining Responsiveness To Prostate Cancer Treatment” (Janssen Biotech, Inc., priority 2020, published 2023).

What was measured is the transcript of the gene that encodes the chain shown.

The labels stand for the following.
B1: WGMELAASRRFSWDHHSAGGPPRVPSVRSGAAQVQPKDPLPLRTLAGCLARTAHLRPGAESLPQPQLHCT (peptide)
chain: WGMELAASRRFSWDHHSAGGPPRVPSVRSGAAQVQPKDPLPLRTLAGCLARTAHLRPGAESLPQPQLHCT
B2: VPFRELKNQRTAQGAPGIHHAASPVAANLCDPARHAQHTRIPCGAGQVRAGRGPEAGGGVLQPQRPAPEKPGCPCRRGQPRLHTVKMWRA (peptide)
chain: VPFRELKNQRTAQGAPGIHHAASPVAANLCDPARHAQHTRIPCGAGQVRAGRGPEAGGGVLQPQRPAPEKPGCPCRRGQPRLHTVKMWRA
B3: VPFRELKNVSVLEGLRQGRLGGPCSCHCPRPSQARLTPVDVAGPFLCLGDPGLFPPVKSSI (peptide)
chain: VPFRELKNVSVLEGLRQGRLGGPCSCHCPRPSQARLTPVDVAGPFLCLGDPGLFPPVKSSI
B4: CHLFLQPQVGTPPPHTASARAPSGPPHPHESCPAGRRPARAAQTCARRQHGLPGCEEAGTARVPSLHLHLHQAALGAGRGRGWGEACAQVPPSRG (peptide)
chain: CHLFLQPQVGTPPPHTASARAPSGPPHPHESCPAGRRPARAAQTCARRQHGLPGCEEAGTARVPSLHLHLHQAALGAGRGRGWGEACAQVPPSRG
B5: LWFQSSELSPTGAPWPSRRPTWRGTTVSPRTATSSARTCCGTKWPSSQEAALGLGSGLLRFSCGTAAIR (peptide)
chain: LWFQSSELSPTGAPWPSRRPTWRGTTVSPRTATSSARTCCGTKWPSSQEAALGLGSGLLRFSCGTAAIR

One series in a line: Expression profiling of prostate neoantigens in tumor and normal tissues (qPCR, Fluidigm Biomark). To be noted: FFPE prostate cancer samples. More on the design: species or system human.
For B1, the “qPCR Relative Average Ct” value is on record as 14.
On the same count and under the same terms, the same measure for B2: 12.1; for B3: 11.2.

The same series, now with this note: about 90 FFPE tissue samples from prostate cancer.
For the molecule B1, the “qPCR % Positive FFPE” value came to 11%.
For B2, the “qPCR % Positive FFPE” value amounted to 25.6%.
In the case of B4, the “qPCR % Positive FFPE” value came to 0.0%.
For B3, the “qPCR % Positive FFPE” value worked out at 52.2%.
As for B5, the “qPCR % Positive FFPE” value is 0%.

Still in this series, the particulars now being: panel of normal tissues.
As to B1, the “qPCR Normal Tissue Expression” value was “None”.
For the molecule B2, the “qPCR Normal Tissue Expression” value was “None”.
Same read-out and setting: the same measure for B4: “None”; for B3: “Mammary Gland”; for B5: “None”.
